From ChEMBL document CHEMBL3988442, “University of Dundee, Small-Polar-MMV Screening Library” (2021).

The chains behind the UniProt entries cited, without tags or fusion partners.
UniProt E9BF75, entry or part of it: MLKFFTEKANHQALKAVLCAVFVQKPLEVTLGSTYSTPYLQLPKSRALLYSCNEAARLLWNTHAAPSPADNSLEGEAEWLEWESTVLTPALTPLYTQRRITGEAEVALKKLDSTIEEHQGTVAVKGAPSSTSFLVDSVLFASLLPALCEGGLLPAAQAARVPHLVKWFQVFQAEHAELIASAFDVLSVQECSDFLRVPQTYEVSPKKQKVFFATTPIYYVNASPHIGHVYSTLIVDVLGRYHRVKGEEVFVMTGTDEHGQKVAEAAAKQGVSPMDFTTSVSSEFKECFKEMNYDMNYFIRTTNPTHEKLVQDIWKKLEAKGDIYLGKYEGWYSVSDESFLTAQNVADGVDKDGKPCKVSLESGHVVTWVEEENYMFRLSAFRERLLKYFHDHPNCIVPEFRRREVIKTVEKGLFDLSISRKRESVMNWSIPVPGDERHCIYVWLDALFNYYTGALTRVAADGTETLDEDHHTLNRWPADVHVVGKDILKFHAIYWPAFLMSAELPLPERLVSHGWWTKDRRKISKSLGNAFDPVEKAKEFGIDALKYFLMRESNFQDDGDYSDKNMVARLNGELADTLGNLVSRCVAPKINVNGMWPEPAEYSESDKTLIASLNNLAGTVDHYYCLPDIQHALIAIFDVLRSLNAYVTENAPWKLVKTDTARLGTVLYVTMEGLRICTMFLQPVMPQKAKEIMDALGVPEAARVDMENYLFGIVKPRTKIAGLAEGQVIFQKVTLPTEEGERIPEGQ

Results are percentages, as filed. The controls that fix the scale are not given in the record; negative values are as filed. Compounds were drawn at random from those tested, without regard to their results. A dash means the value is not listed here; it may have been measured.

Mtb heat-shock: 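Assay on Mycobacterium tuberculosis, filed only as a heat shock assay from Cornell; the read-out is not stated. The concentration is filed as 10 mM, unlikely as a test dose, so the dose is not known. Direction is inferred from retests: higher values go with stronger inhibition. Size under these conditions: about 69,000 compounds, about 930 of them at 50% or above in at least one test.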
Mtb growth Cornell: 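Whole-cell assay for inhibitors of Mycobacterium tuberculosis growth, labelled Cornell in the record; the read-out is not stated. The concentration is filed as 10 mM, unlikely as a test dose, so the dose is not known. Higher means stronger inhibition (inferred from two other growth screens of the library). Size under these conditions: about 53,000 compounds, about 900 of them at 50% or above in at least one test.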
LdMetRS: 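Methionyl-tRNA synthetase (putative), Leishmania donovani (UniProt E9BF75). Primary screen of methionyl-tRNA synthetase; the read-out is not stated. The test concentration is not given. The values are filed as inhibition. Size under these conditions: about 68,000 compounds, about 24 of them at 50% or above in at least one test.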

compound | Mtb heat-shock | Mtb growth Cornell | LdMetRS
CS(=O)(=O)c1ccc(CN2C[C@H]3CC[C@@H]2CN(c2ncccn2)C3)cc1 | - | - | 13.55
[H][C@]12CN(c3cnn(C)c3)C(=O)[C@@]1([H])CN(S(=O)(=O)C1CC1)C2 | -7.325 | 14.78 | -
CCNC(=O)C1CCN(Cn2nc(-c3ccc(F)cc3)oc2=O)CC1 | -7.163 | -80.83 | 14.53
COC1COC2(CCN(Cc3ccc4c(c3)OCO4)CC2)C1 (stereo not given) | - | - | 3.922
CCOCc1nc2c(c(N(C)Cc3snnc3C)n1)CCNCC2 | -24.87 | - | 4.969
CS(=O)(=O)c1ccc(CNC(=O)N2CCC(C(N)=O)C2)cc1 (stereo not given) | 13.86 | -6.334 | 10.8
Cc1cc(C)c2nc(CNC3CCNC3=O)cc(O)c2c1 (stereo not given) | 9.81 | 3.628 | 12.03
O=C(Nc1cnccn1)[C@H]1CO[C@H]2CCN(c3ncc(F)cn3)C[C@H]2C1 | - | - | 4.11
[H][C@@]12CCN(Cc3cnn(C)c3)C[C@@]1([H])O[C@@H](c1nc(C)cs1)C2 | -19.63 | -4.052 | -
O=C(c1ccoc1)N1C[C@H]2CC[C@@]3(N=C(c4ccccc4)NC3=O)[C@H]2C1 | - | - | 7.407
CC[C@H](C)[C@H](NC(=O)c1ccc(-n2cnnn2)cc1)C(=O)OC | 28.28 | -4.888 | -1.292
COCC1c2nnn(CC3CC3)c2CCN1C(=O)c1cccc(F)c1 (stereo not given) | -25.33 | 7.509 | 18.22
Cn1cccc1C(=O)NC(C)(C(N)=O)c1cccc(Cl)c1 (stereo not given) | -2.759 | 20.09 | 16.17
O=C(NC[C@H]1OC[C@@H]2CN(Cc3ccco3)CC[C@@H]21)c1cscn1 | - | - | 2.454
O=C(NCCNc1cc(N2CCCC2)ncn1)c1cnccn1 | 9.528 | 13.96 | 1.362
O=C(Nc1ccc(Br)cc1F)c1cc(CN2CCOCC2)on1 | -3.382 | 74.1 | 20.41
CN(Cc1noc2c1CCCC2)C(=O)C1CCOc2ccccc2C1 (stereo not given) | -24.4 | 17.83 | 11.06
O=C(O)C(F)(F)F.[H][C@@]12CN(C(=O)[C@H]3CCCO3)C[C@]1([H])C(=O)N(CCN1CCCC1)C2 | -0.06274 | 16.12 | -
O=C(C1CCCC1)N1CC[C@]2(O)CCN(Cc3ncccn3)C[C@@H]2C1 | - | - | 0.2577
O=C(NC1CC1)[C@H]1CC[C@@H]2[C@@H](CCN2c2ncc(F)cn2)O1 | - | - | 7.874
CCOC(=O)CCC(=O)N1CCC(Oc2ncccc2Cl)CC1 | -2.612 | 30.63 | 12.95
c1cncc(CCc2nc(C3CC3)nn2-c2ccc3c(c2)OCCO3)c1 | -16.25 | 17.22 | 1.361
CS(=O)(=O)N1CCC(Nc2ccnc3ccc(Cl)cc23)CC1 | 9.048 | - | 24.15
CC(C)n1nccc1CN1Cc2nccn2CC1c1ccccc1 (stereo not given) | 8.064 | 55.64 | 14.53
Cc1ccc(N2C[C@@H]3CN(Cc4ccsc4)CCO[C@@H]3C2)nn1 | - | - | 5.263
CCOCCn1nc(C)cc1C(=O)N1CCC2(CC1)[C@H](O)C[C@@H]2OCC | -6.361 | -3.975 | 8.027
Cn1ccc(N2CCCC(NC(=O)c3ccsc3)C2=O)n1 (stereo not given) | -126.8 | - | 6.949
CC(NC(=O)NCCCN1CCCC1)c1nncn1C (stereo not given) | -5.961 | - | 13.41
CSCC[C@H](N)C(=O)N1CC(Oc2ccccc2C)C1 | -15.3 | - | 3.562
Cc1cc(C2CCCN(C(=O)c3ccc(OCC4CC4)nc3)C2)n[nH]1 (stereo not given) | -4.796 | - | 14.29
COCCOC(=O)N1C[C@H]2CC[C@@H]1CN(C1Cc3ccccc3C1)C2 | - | - | 10.68
O=C(O)C(F)(F)F.O=C(O)C(F)(F)F.[H][C@]12CCN(S(=O)(=O)CC)CC[C@@]1([H])S(=O)(=O)CCN2Cc1cccnc1 | -25.71 | - | -
Cc1cc(S(=O)(=O)N2CCCc3cc(Br)ccc32)sc1C(=O)O | -25.4 | 32.41 | -11.67
O=C(NCC1CC1)[C@@H]1CCO[C@@H]2CCN(Cc3ccc(F)cc3)C[C@H]21 | - | - | 15.56
CC(C)NC(=O)N1CCCC2(CCCCN2)C1 (stereo not given) | 13.47 | - | 8.333
Cc1cc(=O)n2nc(Oc3cc(Cl)cc(Cl)c3)sc2n1 | 2.305 | -25.1 | 10.53
Cn1c(CN2CCOC(Cn3cncn3)C2)nc2ccccc21 (stereo not given) | -5.198 | -20.77 | -0.7246
CCc1[nH]c2c(CNc3nc(C)cc(NC)n3)cc(C)cc2c1C | 100.6 | 27.1 | 37.05
CSc1nnc(CNC(=O)Nc2ccccc2F)n1C | 1.262 | 12.83 | 11.84
Fc1ccc(COCC2CCN(Cc3ccccn3)CC2)cc1.O=C(O)C(=O)O | -21.79 | 21.06 | -
c1ccn2cc(CN3CCCC(c4ccn[nH]4)C3)nc2c1 (stereo not given) | 30.33 | -9.872 | 9.574
CNC(=O)C(NC(=O)CCc1cccc(OC2CCCC2)c1)C(C)C (stereo not given) | -0.03393 | - | 10.31
[H][C@]12CC[C@@]3(N=C(CC)N(CC4CC4)C3=O)[C@@]1([H])CN(S(=O)(=O)CC(C)C)C2 | 1.672 | 27.87 | -
CCc1nc(C)c(C(=O)N2C[C@H]3CC[C@@H]2CN(S(=O)(=O)N(C)C)C3)s1 | - | - | 6.829
O=C(O)C(F)(F)F.O=C(O)C(F)(F)F.[H][C@@]12COC[C@]1(CNC(=O)c1ccno1)CN(Cc1cccc(C)n1)C2 | -11.72 | 13.27 | -
O=C(O)C(F)(F)F.[H][C@@]12CCN(CC3CCOCC3)C[C@]1(c1nc(C)no1)CCO2 | -2.908 | 4.916 | -
COc1ccccc1C1(O)CCCN(C(=O)c2ccnn2C(C)C)C1 (stereo not given) | 0.2069 | -20.43 | 18.37
O=C1NC2(CCN(CCO)CC2)CC1c1ccccc1 (stereo not given) | - | - | 10.73
CN(C)c1ncccc1CNS(=O)(=O)c1c(F)cccc1F | -3.652 | - | 19.32
Cc1ccc(F)c2c1CCCN2C(=O)Cc1c(C)nn(C)c1C | -24.89 | -7.732 | 2.419
COc1ccc(C2=Nn3c(CCCN)nnc3-c3ccccc3C2)cc1 | 2.962 | 6.603 | 24.36
O=C(O)C(F)(F)F.[H][C@]12CC[C@@]3(N=C(C)N(CC4CC4)C3=O)[C@@]1([H])CN(CC1CC1)C2 | -5.576 | 8.932 | -
Cc1occc1C(=O)N1CCC[C@]2(C[C@@H](OCc3ccncc3)CO2)C1 | - | - | 7.95
CCCc1n[nH]c(C2CN(CCNS(=O)(=O)CC)CCO2)n1 (stereo not given) | 3.2 | - | 4.861
O=C(O)C(F)(F)F.[H][C@@]12CCCO[C@]1([H])[C@H](OC)CN2S(=O)(=O)c1cn(C)cn1 | -4.209 | -2.695 | -
[H][C@]12CN(C(=O)CC3CCCC3)[C@]([H])(CN1)C2 | -1.09 | - | -
c1cnc(NC[C@H]2OC[C@@H]3CCN(Cc4ccsc4)C[C@@H]32)nc1 | - | - | 11.23
Cc1cc(C)n(C2CCCN(C(=O)c3cccc4c3OCO4)C2)n1 (stereo not given) | -7.098 | -25.67 | 16.52
O=c1[nH]c(CN(Cc2ccco2)C2CCCC2)nc2ccccc12 | -4.154 | 9.356 | 10.93
Cc1cc(C)cc(-n2ncc3c2CCCC3N)c1 (stereo not given) | -6.317 | -12.26 | 12.47
O=C(NC1CCCC1)N1CCCC(c2nccn2Cc2ccncc2)C1 (stereo not given) | 4.55 | 1.037 | 10.62
O=C(O)C(F)(F)F.[H][C@@]12CCN(Cc3ccc(C)o3)C[C@@]1([H])[C@H](C(=O)NC1CC1)CCO2 | -2.405 | -17.11 | -
Clc1snnc1CN1CCCCC1Cn1cncn1 (stereo not given) | 25.35 | -3.681 | 7.042
O=C(c1cccs1)N1CCC(n2nc(-c3ccco3)ccc2=O)CC1 | 31.38 | 27.81 | 18.15
COc1ccc(NC(C)=O)cc1OCc1cccnc1 | -18.73 | 5.642 | 10.68
CCN1CCN(c2nsc(-c3cccnc3)c2C#N)CC1 | -23.22 | 8.063 | 12.01
CCc1ccc(C2CCCCCN2C(=O)CNC(=O)C2CC2)o1 (stereo not given) | -11.18 | - | 13.04
COc1cc(CNC(=O)Nc2cc(C(F)(F)F)c[nH]c2=O)ccn1 | 19.8 | - | 13.27
O=C(c1cccc(Cl)c1)N1CC[C@H]2[C@H]1CCN2CC1CC1 | - | - | 13.74
CC(C(=O)NC1CCN(C)CC1)n1nc(C(F)(F)F)c(Cl)c1C1CC1 (stereo not given) | 2.416 | 5.012 | 8.189
CCc1cc(N2CCC(NCCSc3nnnn3C)CC2)nc(C)n1 | -16.26 | 22.61 | 20.36
CCC(C)(N)c1nc(C(C)C)cc(=O)[nH]1 (stereo not given) | - | - | -0.9639
CNS(=O)(=O)CC1CCCN1C(=O)c1ccc(C)c(C)c1 (stereo not given) | 8.48 | -5.447 | 11.85
CCN1CC(C(=O)NCc2cccc(SC)c2)CC1=O (stereo not given) | -7.861 | 1.967 | 3.911
CC(C)(C)OC(=O)N1CSC[C@@H]1C(=O)NCc1ccncc1 | -0.8682 | 14.58 | 9.42
CCN(CC)S(=O)(=O)c1cc(Br)ccc1OC | 4.615 | -7.684 | 10.34

The first 9 entries again:

{"compound": "CS(=O)(=O)c1ccc(CN2C[C@H]3CC[C@@H]2CN(c2ncccn2)C3)cc1", "LdMetRS": 13.55}
{"compound": "[H][C@]12CN(c3cnn(C)c3)C(=O)[C@@]1([H])CN(S(=O)(=O)C1CC1)C2", "Mtb heat-shock": -7.325, "Mtb growth Cornell": 14.78}
{"compound": "CCNC(=O)C1CCN(Cn2nc(-c3ccc(F)cc3)oc2=O)CC1", "Mtb heat-shock": -7.163, "Mtb growth Cornell": -80.83, "LdMetRS": 14.53}
{"compound": "COC1COC2(CCN(Cc3ccc4c(c3)OCO4)CC2)C1", "stereo": "stereo not given", "LdMetRS": 3.922}
{"compound": "CCOCc1nc2c(c(N(C)Cc3snnc3C)n1)CCNCC2", "Mtb heat-shock": -24.87, "LdMetRS": 4.969}
{"compound": "CS(=O)(=O)c1ccc(CNC(=O)N2CCC(C(N)=O)C2)cc1", "stereo": "stereo not given", "Mtb heat-shock": 13.86, "Mtb growth Cornell": -6.334, "LdMetRS": 10.8}
{"compound": "Cc1cc(C)c2nc(CNC3CCNC3=O)cc(O)c2c1", "stereo": "stereo not given", "Mtb heat-shock": 9.81, "Mtb growth Cornell": 3.628, "LdMetRS": 12.03}
{"compound": "O=C(Nc1cnccn1)[C@H]1CO[C@H]2CCN(c3ncc(F)cn3)C[C@H]2C1", "LdMetRS": 4.11}
{"compound": "[H][C@@]12CCN(Cc3cnn(C)c3)C[C@@]1([H])O[C@@H](c1nc(C)cs1)C2", "Mtb heat-shock": -19.63, "Mtb growth Cornell": -4.052}